Laboratory results: PubChem BioAssay AID1259405 (NCATS, 2018)

Test: 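Mouse-designed siRNAs used to find CHO productivity engineering targets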 (primary screen)
Cell system: Chinese hamster CHO-K1 ovary cells with stable secreted eGFP expression
Knock-down reagent: single siRNA against mouse genes, 0.8 pmol siRNA per well (2 µl of 400 nM stock)
Duration: 3 days
Detection: 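Percent of the per-plate non-targeting control median for intracellular GFP per well by laser scanning cytometry and for cell viability by ATP luminescence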
Reading the numbers: GFP, % of control: higher = more GFP per well, higher productivity; viability (ATP), % of control: higher = more viable cells (more ATP)
Call rule: 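a knock-down is called active if GFP reaches 120% or more of non-targeting control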
This is an unselected part of about 50,000 reagents tested. About 4,000 of all reagents (8%) were called active. 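Mouse siRNA library applied to hamster cells; one well for each siRNA.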 Entries without a mark were called inactive. The numbers tell different reagents against one gene apart.

target gene | reagent no. | GFP, % of control | viability (ATP), % of control
Rin1 | 1 | 89.5 | 97.3
Rin1 | 2 | 73.2 | 76.2
Rin1 | 3 | 117 | 75.7
Rbm39 | 1 | 80.7 | 86.3
Rbm39 | 2 | 66.1 | 80.4
Rbm39 | 3 | 48.9 | 57.8
Cib1 | 1 | 71.4 | 64.3
Rbbp8nl | 1 | 83.3 | 65.1
Rbbp8nl | 2 | 93.1 | 63.3
Rbbp8nl | 3 | 1.76 | 4.74
Nap1l1 | 1 | 187 (active) | 88.9
Nap1l1 | 2 | 53.8 | 55.6
Nap1l1 | 3 | 70.8 | 82.2
Vmn1r18 | 1 | 87.2 | 71
Vmn1r18 | 2 | 111 | 55.8
Vmn1r18 | 3 | 98.1 | 111
Maf | 1 | 98.9 | 81.9
Maf | 2 | 50.9 | 78.3
Maf | 3 | 104 | 121
Mre11a | 1 | 38.4 | 71.8
Mre11a | 2 | 78.9 | 80.9
Mre11a | 3 | 72.5 | 70.3
Fau | 1 | 74.4 | 88.8
Fau | 2 | 126 (active) | 103
Fau | 3 | 86.8 | 61.3
Tcirg1 | 1 | 96.4 | 101
Tcirg1 | 2 | 59.4 | 74
Tcirg1 | 3 | 72.3 | 73
Gata4 | 1 | 78 | 82.5
Gata4 | 2 | 73.4 | 67
Cct2 | 1 | 78.5 | 108
Cct2 | 2 | 76.7 | 94.5
Cct2 | 3 | 74.4 | 137
Slc6a4 | 1 | 98.8 | 88.6
Slc6a4 | 2 | 27.8 | 26.6
Slc6a4 | 3 | 95.4 | 108
Gpn2 | 1 | 59.6 | 62.3
Gpn2 | 2 | 70.1 | 58.5
Gpn2 | 3 | 101 | 51.8
Jpt2 | 1 | 58.8 | 81.9
Jpt2 | 2 | 71.5 | 63.9
Jpt2 | 3 | 37.8 | 63.4
Syn3 | 1 | 82.2 | 70.9
Syn3 | 2 | 78.5 | 77.4
Hnrnpr | 1 | 101 | 98.9
Hnrnpr | 2 | 71.9 | 95
Hnrnpr | 3 | 66.7 | 94
Spry4 | 1 | 61.4 | 88.8
Spry4 | 2 | 115 | 95.4
Spry4 | 3 | 105 | 130
Cyb5r4 | 1 | 72.7 | 94.5
Cyb5r4 | 2 | 123 (active) | 83.9
Cyb5r4 | 3 | 16.2 | 22
Lama1 | 1 | 50.4 | 52.5
Lama1 | 2 | 85.6 | 73.6
Lama1 | 3 | 65.5 | 61.1
Ercc5 | 1 | 99.1 | 88.8
Ercc5 | 2 | 108 | 86
Ercc5 | 3 | 126 (active) | 124
